System: activated sludge
Assay: Biodegradability test in compact aeration type activated sludger
Settings: sample diluted to COD 500 ppm, activated sludge seed, 7 days

| Molecule | Decomposition Rate (%) |
| --- | --- |
| O=C([O-])CN(CCN(CC(=O)[O-])CC(=O)[O-])CC(=O)[O-].[Fe+3].[NH4+] [ammonium ferric ethylenediaminetetraacetate, reference compound] | 0 |
| calcium disodium glutamic acid-N,N-diacetate [Example 13] | 100 |
